The record followed here is PubChem BioAssay AID2685 (National Center for Advancing Translational Sciences (NCATS), 2010).

The nature of this test: qHTS Assay for Lipid Storage Modulators in Drosophila S3 Cells.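 For cell number change: cells counted by Cell Tracker Red CMTPX staining in the red channel.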 To be noted: BODIPY lipid droplet fluorescence, 18-24 h; for cell number change: measured here: cell count max response, cells fed with added oleic acid. The gist of the method: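 Drosophila S3 cells got compounds at several concentrations plus oleic acid (400 uM solution). Laser-scanning cytometry with 488 nm excitation read lipid droplets at 500-530 nm and cells at 575-640 nm. Percent activity was relative to 20 uM Triacsin C.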
For orientation: qHTS replaces the single test concentration by a dilution series.

[1] abbreviates: measured here: lipid fluorescence (Fed channel) AC50, cells fed with added oleic acid.
Setting [2] is: measured here: cell number channel AC50, cells fed with added oleic acid.

Some of the results follow. Shown are side measurements of this screen, not its main read-out; they come without a call. The list favours compounds with an active or inconclusive main result. The note in brackets gives the kind of curve behind each potency; many fits are weak.

For `CCN(c1ccccc1)S(=O)(=O)c1ccc(NC(=O)c2ccco2)cc1`, the cell number change was -27.2%. Also, the half-maximal activity concentration (AC50) under setting [1] was 16.4 µM [falling, single point]. For the molecule `CC1(C)C2CCC1(CS(=O)(=O)NCc1ccc(S(N)(=O)=O)cc1)C(=O)C2` (configuration not stated), the cell number change worked out at 12.9%. Also, the concentration at half-maximal activity (AC50) under setting [1] is 0.184 µM [falling, single point].

Take `CCSc1ncnc2sc3c(c12)CCC3`: the cell number change was found to be 3.32%. On to `N#Cc1ccsc1NC(=O)CN1CCN(S(=O)(=O)c2ccccc2C(F)(F)F)CC1`, for which the cell number change is -41.4%. Further, the AC50 under setting [2] was 1.84 µM [falling, full curve]. For the same molecule, the half-maximal activity concentration (AC50) under setting [1] was 1.84 µM [falling, full curve]. As for `CCOC(=O)c1nnn(-c2ccc([N+](=O)[O-])cc2[N+](=O)[O-])c1C`, the cell number change is -23.5%.

On to `C=CCn1c(=O)c2ccccc2n2c(SCC(=O)NC(C)C)nnc12`, for which the cell number change turned out to be 4.17%. As to `CCOCCCNC(=O)CSc1ccccc1`, the concentration at half-maximal activity (AC50) under setting [1] was 0.146 µM [falling, full curve]. With `Cc1ccc(-c2csc(NC(=O)c3ccccc3F)c2C(=O)O)cc1`, the cell number change amounted to 15.6%. The half-maximal activity concentration (AC50) under setting [1] was 3.66 µM [rising, full curve]. On to `CCCNC(=O)CSc1nnc(C)s1`, for which the AC50 is 0.82 µM [rising, full curve, poor fit] under setting [2] and 0.0291 µM [falling, full curve, poor fit] under setting [1].

`CCOC(=O)Cn1c(Br)nc2c1c(=O)[nH]c(=O)n2C`: the cell number change was found to be 38%. Under setting [2], the concentration at half-maximal activity (AC50) is 29.1 µM [rising, single point]. Under setting [1], the AC50 is 5.17 µM [falling, partial curve, poor fit].

In the case of `CCOC(=O)N1CCN(C(=S)NC(=O)c2c(-c3c(Cl)cccc3Cl)noc2C)CC1`, the half-maximal activity concentration (AC50) under setting [2] is 2.31 µM [rising, partial curve]. On to `COC(=O)c1ccc(C(=O)OC)c(NC(=O)CN2CCN(c3ccccc3OC)CC2)c1`, for which the cell number change was 73.5%. Moreover, the half-maximal activity concentration (AC50) under setting [2] is 0.517 µM [rising, full curve]. In addition, the half-maximal activity concentration (AC50) under setting [1] is 20.6 µM [rising, partial curve, poor fit]. For the molecule `Nc1ccc(-c2cnc(-c3ccc(N)cc3)nc2)cc1`, the cell number change is -18.1%. As to `Nc1nc(-c2ccc(Cl)cc2)nn1C(=O)c1cccnc1`, the cell number change was -4.22%. Moreover, under setting [1], the concentration at half-maximal activity (AC50) was 0.116 µM [rising, full curve, poor fit]. Turning to `CCOC(=O)N1CCN(c2ccc3nnnn3n2)CC1`, the cell number change was 23.1%. For the same molecule, under setting [2], the AC50 was 0.517 µM [falling, single point]. As to `Cc1ccc(SCC(=O)c2cc(C)c(O)c(C)c2)cc1`, the cell number change was -41.1%. The AC50 under setting [2] is 20.6 µM [falling, single point]. In addition, under setting [1], the AC50 is 29.1 µM [falling, single point]. For the molecule `CCCCc1nnc(NC(=O)c2ccccc2OCc2c(C)noc2C)s1`, the cell number change was -30.1%. For the same molecule, the AC50 under setting [2] was 0.058 µM [falling, full curve, poor fit].

In general, AC50 refers to the concentration at which the activity in the assay is half-maximal.
